Source: PubChem BioAssay AID330 (DTP/NCI, 2004)
The list shows only some results of the screen, not a fair sample: it is rich in T/C values a quarter to a half above the control, in often repeated tests (any T/C) and in doses without a T/C. Further doses and runs are listed elsewhere. T/C is the treated group as % of the vehicle group. Some doses have a count of surviving animals in place of a T/C: the source holds a T/C of zero for them, seemingly a mark for toxic or unscored doses. Some doses without a T/C left all or most animals alive at the check, yet need not have been tolerated: survival well below the control is almost never listed, so the zero probably covers shortened survival too. Counts of survivors are from the toxicity check (mostly the fifth day) where no day follows; animals may have died later. Schedule codes are those of the source, taken here to give the interval after Q, in days (D) or hours (H), and the number of doses after X. Some doses were run more than once; their values stand side by side, smallest first. For survival time, the PubChem record calls one and a half times the control and up active, and a quarter to a half above the control has no call in these data; cut-offs in other NCI protocols can differ. Some T/C values carry the count of animals alive at the toxicity check (mostly the fifth day); where none is given, no animal had died by that day.

Tested on: P388 leukemia ip, CD2F1 mice, survival T/C
Assay: NCI In Vivo Anticancer Drug Screen. Data for tumor model P388 Leukemia (intraperitoneal) in CD2F1 (CDF1) mice
Conditions: T/C endpoint: median survival time, higher T/C = longer survival
[1] = dose: 200.0 mg/kg/injection, schedule: Q01DX005 (ip), vehicle: Klucel (hydroxypropylcellulose) (HPC)
[2] = dose: 60.0 mg/kg/injection, schedule: Q01DX005 (ip), vehicle: saline with Tween-80
[3] = dose: 100.0 mg/kg/injection, schedule: Q01DX005 (ip), vehicle: saline with Tween-80

## Cc1cc2c(c3oc(C4(C)OC4C4OC4C)cc(=O)c13)C(=O)c1c(O)c(C3CC(C)(N(C)C)C(O)C(C)O3)cc(C3CC(N(C)C)C(O)C(C)O3)c1C2=O (stereo unspecified)
dose: 0.01 mg/kg/injection, schedule: Q01DX005 (ip), vehicle: saline
  T/C: 140 % of control
dose: 0.01 mg/kg/injection, schedule: Q01DX009 (ip), vehicle: saline
  T/C: 142 % of control
dose: 0.02 mg/kg/injection, schedule: Q01DX001 (ip), vehicle: saline
  T/C: 130 % of control
dose: 0.02 mg/kg/injection, schedule: Q01DX009 (ip), vehicle: saline
  T/C: 133 % of control
dose: 0.02 mg/kg/injection, schedule: Q03HX024 (ip), vehicle: saline
  T/C: 133 % of control
dose: 0.02 mg/kg/injection, schedule: Q04DX003 (ip), vehicle: saline
  T/C: 140 % of control
dose: 0.02 mg/kg/injection, schedule: Q08DX002 (ip), vehicle: saline
  T/C: 140 % of control
dose: 0.03 mg/kg/injection, schedule: Q01DX001 (ip), vehicle: saline
  T/C: 135 % of control
dose: 0.03 mg/kg/injection, schedule: Q01DX005 (ip), vehicle: saline
  T/C: 140 % of control
dose: 0.03 mg/kg/injection, schedule: Q03HX024 (ip), vehicle: saline
  T/C: 133 % of control
dose: 0.03 mg/kg/injection, schedule: Q08DX002 (ip), vehicle: saline
  T/C: 140 % of control
dose: 0.06 mg/kg/injection, schedule: Q01DX001 (ip), vehicle: saline
  T/C: 145 % of control
dose: 0.06 mg/kg/injection, schedule: Q03HX016 (ip), vehicle: saline
  T/C: 127 % of control
dose: 0.06 mg/kg/injection, schedule: Q03HX024 (ip), vehicle: saline
  T/C: 142 % of control
dose: 0.12 mg/kg/injection, schedule: Q03HX008 (ip), vehicle: saline
  T/C: 127 % of control
dose: 0.12 mg/kg/injection, schedule: Q03HX024 (ip), vehicle: saline
  T/C: 138 % of control
dose: 0.12 mg/kg/injection, schedule: Q04DX003 (ip), vehicle: saline
  T/C: 140 % of control
dose: 0.12 mg/kg/injection, schedule: Q08DX002 (ip), vehicle: saline
  T/C: 140 % of control
dose: 1.3 micrograms/kg/injection, schedule: Q01DX009 (ip), vehicle: water
  T/C: 125 % of control
dose: 2.5 micrograms/kg/injection, schedule: Q01DX009 (ip), vehicle: water
  T/C: 134 % of control
dose: 3.12 micrograms/kg/injection, schedule: Q01DX009 (ip), vehicle: saline
  T/C: 136 and 140 % of control
dose: 5.0 micrograms/kg/injection, schedule: Q01DX009 (ip), vehicle: water
  T/C: 140 % of control
dose: 6.25 micrograms/kg/injection, schedule: Q01DX009 (ip), vehicle: saline
  survivor count: 4 of 6
dose: 12.5 micrograms/kg/injection, schedule: Q01DX009 (ip), vehicle: saline
  survivor count: 1 of 6
dose: 20.0 micrograms/kg/injection, schedule: Q01DX009 (ip), vehicle: water
  survivor count: 10 of 10
dose: 25.0 micrograms/kg/injection, schedule: Q01DX009 (ip), vehicle: saline
  survivor count: 0 of 6 and 6 of 6
dose: 40.0 micrograms/kg/injection, schedule: Q01DX009 (ip), vehicle: water
  survivor count: 10 of 10
dose: 50.0 micrograms/kg/injection, schedule: Q01DX009 (ip), vehicle: saline
  survivor count: 0 of 6 and 3 of 6
dose: 80.0 micrograms/kg/injection, schedule: Q01DX009 (ip), vehicle: water
  survivor count: 10 of 10
dose: 100.0 micrograms/kg/injection, schedule: Q01DX009 (ip), vehicle: saline
  survivor count: 0 of 6 and 3 of 6
dose: 160.0 micrograms/kg/injection, schedule: Q01DX009 (ip), vehicle: water
  survivor count: 1 of 10

## CN=C(c1ccc(NC(=O)c2cccc(C(=O)Nc3ccc(C(=NC)N(C)C)cc3)c2)cc1)N(C)C
dose: 12.5 mg/kg/injection, schedule: Q01DX005 (ip), vehicle: saline
  survivor count: 1 of 6
dose: 25.0 mg/kg/injection, schedule: Q01DX005 (ip), vehicle: saline
  survivor count: 0 of 6
dose: 50.0 mg/kg/injection, schedule: Q01DX005 (ip), vehicle: saline
  survivor count: 0 of 6
dose: 100.0 mg/kg/injection, schedule: Q01DX005 (ip), vehicle: saline
  survivor count: 0 of 6
dose: 200.0 mg/kg/injection, schedule: Q01DX005 (ip), vehicle: saline
  survivor count: 0 of 6

## CC(C)NCCCNC(=S)C(=S)NCCCNC(C)C
[1]
  survivor count: 0 of 6

## CC1=NN(c2ccccc2)C(=O)/C1=C(\[O-])c1ccccc1.CC1=NN(c2ccccc2)C(=O)/C1=C(\[O-])c1ccccc1.CC1=NN(c2ccccc2)C(=O)/C1=C(\[O-])c1ccccc1.[Fe+3]
[2]
  T/C: 93, 97, 102 % of control
  survivor count: 6 of 6
dose: 120.0 mg/kg/injection, schedule: Q01DX005 (ip), vehicle: saline with Tween-80
  survivor count: 6 of 6
dose: 240.0 mg/kg/injection, schedule: Q01DX005 (ip), vehicle: saline with Tween-80
  survivor count: 6 of 6

## O=[N+]([O-])c1cccc(SNCCO)c1
dose: 100.0 mg/kg/injection, schedule: Q01DX009 (ip), vehicle: saline with Tween-80
  survivor count: 0 of 6
dose: 200.0 mg/kg/injection, schedule: Q01DX009 (ip), vehicle: saline with Tween-80
  survivor count: 0 of 6

## O=C1c2cc([N+](=O)[O-])cc3cc([N+](=O)[O-])cc(c23)C(=O)N1CCNCCN1C(=O)c2cc([N+](=O)[O-])cc3cc([N+](=O)[O-])cc(c23)C1=O
[3]
  T/C: 130 % of control

## C=C1CC/C=C(/C)C(=O)C(OC(C)=O)C2C1CC2(C)C (stereo unspecified)
dose: 56.0 mg/kg/injection, schedule: Q01DX009 (ip), vehicle: saline + alcohol
  survivor count: 2 of 6

## CNC(=O)Oc1ccc2c(c1)[C@]1(C)CCN(C)[C@@H]1N2C
dose: 0.78 mg/kg/injection, schedule: Q01DX005 (ip), vehicle: saline with Tween-80
  survivor count: 0 of 6
dose: 1.56 mg/kg/injection, schedule: Q01DX005 (ip), vehicle: saline with Tween-80
  survivor count: 0 of 6
dose: 3.13 mg/kg/injection, schedule: Q01DX005 (ip), vehicle: saline with Tween-80
  survivor count: 0 of 6
dose: 6.25 mg/kg/injection, schedule: Q01DX005 (ip), vehicle: saline with Tween-80
  survivor count: 0 of 6
dose: 12.5 mg/kg/injection, schedule: Q01DX005 (ip), vehicle: saline with Tween-80
  survivor count: 0 of 6
dose: 25.0 mg/kg/injection, schedule: Q01DX005 (ip), vehicle: saline with Tween-80
  survivor count: 0 of 6
dose: 50.0 mg/kg/injection, schedule: Q01DX005 (ip), vehicle: saline with Tween-80
  survivor count: 0 of 5
[3]
  survivor count: 0 of 5
dose: 200.0 mg/kg/injection, schedule: Q01DX005 (ip), vehicle: saline with Tween-80
  survivor count: 0 of 5

## C[CH2][Sn]([CH2]C)([O]S(C)(=O)=O)[O]S(C)(=O)=O
dose: 3.12 mg/kg/injection, schedule: Q04DX003 (ip), vehicle: saline
  T/C: 125 % of control
dose: 12.5 mg/kg/injection, schedule: Q04DX003 (ip), vehicle: saline
  T/C: 133 % of control [4 of 6 alive]
dose: 25.0 mg/kg/injection, schedule: Q04DX003 (ip), vehicle: saline
  survivor count: 0 of 6
dose: 100.0 mg/kg/injection, schedule: Q04DX003 (ip), vehicle: saline
  survivor count: 0 of 6
dose: 200.0 mg/kg/injection, schedule: Q04DX003 (ip), vehicle: saline
  survivor count: 0 of 6
dose: 400.0 mg/kg/injection, schedule: Q04DX003 (ip), vehicle: saline
  survivor count: 0 of 6

## CCCC1CN2CCc3cc(OC)c(OC)cc3C2CC1=O (stereo unspecified)
dose: 200.0 mg/kg/injection, schedule: Q01DX009 (ip), vehicle: saline
  T/C: 128 % of control [5 of 6 alive]

## COc1cccc2c1C(=O)c1c(O)c3c(c(O)c1C2=O)C[C@@](O)(C(C)O)C[C@@H]3OC1CC(NC(=O)C(F)(F)F)C(O)C(C)O1 (stereo partly specified)
dose: 1.56 mg/kg/injection, schedule: Q01DX009 (ip), vehicle: water
  T/C: 140 % of control
dose: 3.13 mg/kg/injection, schedule: Q01DX009 (ip), vehicle: water
  T/C: 125 and 145 % of control
dose: 6.25 mg/kg/injection, schedule: Q01DX009 (ip), vehicle: water
  T/C: 145 % of control

## CN=C1c2ccccc2C(=O)c2c1c(O)n(-c1ccccc1)c2O
[1]
  survivor count: 5 of 6

## CNCC(=O)Nc1ccc(C2NC(=O)Cc3ccccc32)cc1 (stereo unspecified)
dose: 400.0 mg/kg/injection, schedule: Q04DX002 (ip), vehicle: saline
  survivor count: 1 of 6
